The results in this text go back to paper PMC2740868.

The target of one assay is Flag-Smad3 (UniProt P84022). Kind of assay: co-IP; HEK293T cells co-transfected with HA-BRCA1 constructs and Flag-Smad3; total cell lysates, immunoprecipitation and Western blotting with anti-Flag and anti-HA monoclonal antibodies. A general note: Immunoblotting shows a protein as a band on a membrane.
In a further assay the target is Flag-Smad3, P84022. The assay can be described thus: co-IP; HEK293T cells co-transfected with Flag-Smad3, HA-Smad4 and caTβRII, with or without 200 µM H2O2 for 2 hours; immunoprecipitation and Western blotting as indicated, membrane re-probed with anti-Flag. As to conditions: remark: other sources report otherwise.
Assay [1] concerns the target T1, endogenous Smad3 (human (endogenous in MCF-7, HaCaT, HCC1937 and HCCBRCA1)), P84022. The assay can be described thus: co-IP; endogenous, HaCaT cells, TGF-β1 (2 ng/ml) and H2O2 (100 µM) for 1 hour as indicated; IP anti-Smad3 polyclonal, blot anti-BRCA1 or anti-Smad4; HKMG buffer. As to conditions: remark: other sources report otherwise.
Assay [2] addresses T1, endogenous Smad3 (human (endogenous in …)). The assay can be described thus: co-IP; endogenous, HCC1937 cells (BRCA1-mutated), 2 ng/ml TGF-β1 and 100, 200 and 300 µM H2O2 for 1 hour as indicated; IP anti-Smad3 polyclonal, blot anti-Smad4. As to conditions: remark: other sources report otherwise.
For assay [3] the target is unchanged. Kind of assay: co-IP; HCCBRCA1 cells (wild type BRCA1-reconstituted HCC1937), TGF-β1 (2 ng/ml) and H2O2 (100-300 µM) for 1 hour as indicated; IP anti-Smad3 polyclonal, blot anti-BRCA1 or anti-Smad4; HKMG buffer. As to conditions: remark: other sources report otherwise.
Assay [4] concerns the target T2, endogenous Smad4 (human (endogenous in HaCaT, HCC1937, HCCBRCA1 and MCF-7)), Q13485.
T2 chain: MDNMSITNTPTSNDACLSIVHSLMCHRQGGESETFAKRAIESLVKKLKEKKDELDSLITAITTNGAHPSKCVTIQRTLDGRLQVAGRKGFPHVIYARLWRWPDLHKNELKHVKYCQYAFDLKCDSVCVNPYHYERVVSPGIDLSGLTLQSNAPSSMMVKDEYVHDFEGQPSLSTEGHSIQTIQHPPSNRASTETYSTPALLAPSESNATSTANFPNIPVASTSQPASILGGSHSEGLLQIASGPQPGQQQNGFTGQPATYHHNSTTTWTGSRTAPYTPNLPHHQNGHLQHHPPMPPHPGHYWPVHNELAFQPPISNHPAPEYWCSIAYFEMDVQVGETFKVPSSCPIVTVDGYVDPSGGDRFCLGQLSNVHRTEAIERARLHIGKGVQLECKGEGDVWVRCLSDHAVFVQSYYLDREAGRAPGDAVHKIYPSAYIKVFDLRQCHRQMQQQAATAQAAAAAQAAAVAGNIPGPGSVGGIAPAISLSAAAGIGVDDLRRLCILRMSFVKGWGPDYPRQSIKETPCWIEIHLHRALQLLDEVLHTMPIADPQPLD
Kind of assay: co-IP; endogenous, MCF-7 cells transfected with siGL2 or siBRCA1, starved 3 hours, 1 ng/ml TGF-β1 for 45 min; IP anti-Smad4, blot anti-Smad3. As to conditions: remark: other sources report otherwise.

No constants are given. Whether binding was seen depends on the method and setting. Binding seen in cells or lysates may run through a third protein. Some entries that bind do so weakly or less than the wild type. For part of these data: Where a sequence is shown, tags or fusion partners need not be part of it.

B1: HA-BRCA1 (298–436aa) (domain or fragment, UniProt P38398 298-436)
chain: NVEKAEFCNKSKQPGLARSQHNRWAGSKETCNDRRTPSTEKKVDLNADPLCERKEWNKQKLPCSENPRDTEDVPWITLNSSIQKVNEWFSRSDELLGSDDSHDGESESNAKVADVLDVLNEVDEYSGSSEKIDLLASDP
For the molecule B1, the binding entry with Flag-Smad3 was “binds”.

B2: HA-Smad4, Q13485 1-552 (protein)
chain: MDNMSITNTPTSNDACLSIVHSLMCHRQGGESETFAKRAIESLVKKLKEKKDELDSLITAITTNGAHPSKCVTIQRTLDGRLQVAGRKGFPHVIYARLWRWPDLHKNELKHVKYCQYAFDLKCDSVCVNPYHYERVVSPGIDLSGLTLQSNAPSSMMVKDEYVHDFEGQPSLSTEGHSIQTIQHPPSNRASTETYSTPALLAPSESNATSTANFPNIPVASTSQPASILGGSHSEGLLQIASGPQPGQQQNGFTGQPATYHHNSTTTWTGSRTAPYTPNLPHHQNGHLQHHPPMPPHPGHYWPVHNELAFQPPISNHPAPEYWCSIAYFEMDVQVGETFKVPSSCPIVTVDGYVDPSGGDRFCLGQLSNVHRTEAIERARLHIGKGVQLECKGEGDVWVRCLSDHAVFVQSYYLDREAGRAPGDAVHKIYPSAYIKVFDLRQCHRQMQQQAATAQAAAAAQAAAVAGNIPGPGSVGGIAPAISLSAAAGIGVDDLRRLCILRMSFVKGWGPDYPRQSIKETPCWIEIHLHRALQLLDEVLHTMPIADPQPLD
With B2, the binding entry with Flag-Smad3, P84022 is recorded as “binds”.

B3: endogenous Smad4, Q13485 1-552 (protein)
chain: MDNMSITNTPTSNDACLSIVHSLMCHRQGGESETFAKRAIESLVKKLKEKKDELDSLITAITTNGAHPSKCVTIQRTLDGRLQVAGRKGFPHVIYARLWRWPDLHKNELKHVKYCQYAFDLKCDSVCVNPYHYERVVSPGIDLSGLTLQSNAPSSMMVKDEYVHDFEGQPSLSTEGHSIQTIQHPPSNRASTETYSTPALLAPSESNATSTANFPNIPVASTSQPASILGGSHSEGLLQIASGPQPGQQQNGFTGQPATYHHNSTTTWTGSRTAPYTPNLPHHQNGHLQHHPPMPPHPGHYWPVHNELAFQPPISNHPAPEYWCSIAYFEMDVQVGETFKVPSSCPIVTVDGYVDPSGGDRFCLGQLSNVHRTEAIERARLHIGKGVQLECKGEGDVWVRCLSDHAVFVQSYYLDREAGRAPGDAVHKIYPSAYIKVFDLRQCHRQMQQQAATAQAAAAAQAAAVAGNIPGPGSVGGIAPAISLSAAAGIGVDDLRRLCILRMSFVKGWGPDYPRQSIKETPCWIEIHLHRALQLLDEVLHTMPIADPQPLD
In the case of B3, the binding entry in assay [1], in assay [2] and in assay [3] was “binds” in each case.

B4: endogenous Smad3, P84022 1-425 (protein)
chain: MSSILPFTPPIVKRLLGWKKGEQNGQEEKWCEKAVKSLVKKLKKTGQLDELEKAITTQNVNTKCITIPRSLDGRLQVSHRKGLPHVIYCRLWRWPDLHSHHELRAMELCEFAFNMKKDEVCVNPYHYQRVETPVLPPVLVPRHTEIPAEFPPLDDYSHSIPENTNFPAGIEPQSNIPETPPPGYLSEDGETSDHQMNHSMDAGSPNLSPNPMSPAHNNLDLQPVTYCEPAFWCSISYYELNQRVGETFHASQPSMTVDGFTDPSNSERFCLGLLSNVNRNAAVELTRRHIGRGVRLYYIGGEVFAECLSDSAIFVQSPNCNQRYGWHPATVCKIPPGCNLKIFNNQEFAALLAQSVNQGFEAVYQLTRMCTIRMSFVKGWGAEYRRQTVTSTPCWIELHLNGPLQWLDKVLTQMGSPSIRCSSVS
In the case of B4, in assay [4], the binding entry is “binds”.
